Data taken from PubChem BioAssay AID504444 (National Center for Advancing Translational Sciences (NCATS), 2011).
Among all 360,000 compounds or so, about 7,500 (2.1%) were called active. The shares of active, inactive and inconclusive entries below differ from those in the screen. Calls follow the shape of the dose curve; as a rule, active = well fitted inhibition curve with a large enough effect; inconclusive = small, poorly fitted or top-dose-only effect, or effect the other way; inactive = flat fitted curve, though single readings scatter. Potencies beside an inconclusive call are fits to weak or partial responses and may not hold up.

assay: Nrf2 qHTS screen for inhibitors; conditions: A549 ARE-Fluc reporter, luciferase luminescence, 18-24 h; series mostly up to 46 µM; also: nearly all actives have a fitted effect of over 60% in size
Outline: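 Quantitative HTS in A549 cells stably bearing an antioxidant response element-firefly luciferase construct. Inhibition of Nrf2-driven transcription was scored by luminescence after 18-24 h of compound exposure at 37 °C.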
Potency is read from the fitted curve at half-maximal effect.

Structure (SMILES)	Potency
COc1ccc(C2/C=C\CN(C(=O)C3CCCCC3)C(Cc3ccccc3)C(=O)N2Cc2ccc(F)cc2)cc1 (configuration not stated)	inconclusive: 16.4 µM [falling, single point]
COc1ccc(-c2ccc3ccccc3n2)cc1OC	inconclusive: 13 µM [activator, partial curve]
Cc1ccc(S(=O)(=O)c2nnn3c2nc(NC(C)c2ccccc2)c2sccc23)cc1 (configuration not stated)	inconclusive: 9.2 µM [falling, single point]
CCCCc1nn(-c2cc(Cl)ccc2OC)c2c1C(=O)CC(C)(C)C2	inconclusive: 29.1 µM [falling, single point]
COC(=O)c1ccc(NC(=S)Nc2cccc(C)n2)cc1	inconclusive: 16.4 µM [activator, single point]
COc1ccc(OC2C(=O)N(Cc3ccc4c(c3)OCO4)C2c2sccc2C)cc1 (configuration not stated)	inconclusive: 20.6 µM [falling, single point]
O=C(NCc1ccc(Cl)cc1)c1ccc(-c2ccccc2C(F)(F)F)o1	inactive
Cc1ccc(S(=O)(=O)N2CCOCC2)cc1NC(=O)COc1cccc(Oc2ccccc2)c1	inconclusive: 32.6 µM [falling, single point]
COc1ccc(NC(=O)c2ccccn2)cc1OC	inactive
CC(C)(C)c1ccc(C(=O)NC(=S)NNC(=O)c2cccs2)cc1	inconclusive: 29.1 µM [falling, single point]
CCOc1ccccc1C(=O)Nc1ccc(S(=O)(=O)Nc2onc(C)c2C)cc1	inconclusive: 23.1 µM [falling, single point]
CN(C)c1cccc(C(=O)Nc2nnc(Cc3ccccc3)s2)c1	inconclusive: 29.1 µM [activator, single point]
COc1ccc(N2C(=O)CC(c3ccccc3)CC2=O)cc1	inactive
CCC(Sc1nnc(C)n2c1cc1sccc12)C(=O)Nc1ccccc1F (configuration not stated)	inconclusive: 16.4 µM [falling, single point]
O=[N+]([O-])c1ccc(NN=Cc2ccco2)nc1	inconclusive: 14.6 µM [activator, partial curve]
CCc1cc(C(N)=S)ccn1	inconclusive: 25.9 µM [falling, partial curve, poor fit]
C[C@@H]1NS(=O)(=O)[C@H]2C[C@@H]3C=C[C@]2(O3)[C@H]1OC(=O)c1ccc(C(C)(C)C)cc1	inactive
O=C(NCc1ccccn1)c1cccc(S(=O)(=O)N2CCc3ccccc32)c1	inconclusive: 23.1 µM [falling, single point]
Cc1ccc(F)cc1NC(=O)CCc1c(C)nn(-c2ccc(N3CCCC3)nn2)c1C	inconclusive: 0.651 µM [falling, partial curve]
CCOc1cc(CNC(=O)c2ccc(Cn3c(=O)c4cccn4c4cccnc43)cc2)ccc1OC	inactive
C=CCNC(=O)c1ccc2c(=O)n(Cc3ccccc3OC)c(=S)[nH]c2c1	inconclusive: 29.1 µM [falling, single point]

Among those listed so far, these contain a tert-butyl group.
Structure (SMILES)	Potency
CC(C)(C)c1ccc(C(=O)NC(=S)NNC(=O)c2cccs2)cc1	inconclusive: 29.1 µM [falling, single point]
C[C@@H]1NS(=O)(=O)[C@H]2C[C@@H]3C=C[C@]2(O3)[C@H]1OC(=O)c1ccc(C(C)(C)C)cc1	inactive

(more compounds)

Structure (SMILES)	Potency
O=C(O)C1CC=CCC1C(=O)NCc1ccc(Cl)c(Cl)c1 (configuration not stated)	inconclusive: 29.1 µM [falling, partial curve, poor fit]
CCn1c(SCC(=O)Nc2ccc(N3CCOCC3)c(Cl)c2)nnc1-c1ccc(N)cc1	inconclusive: 20.6 µM [falling, single point]
O=C1/C(=C\c2ccc([N+](=O)[O-])cc2)CS(=O)(=O)C/C1=C/c1ccc([N+](=O)[O-])cc1	inconclusive: 29.1 µM [falling, single point]
NC(=NCc1ccco1)NC(=O)c1ccc(Cl)cc1	inconclusive: 4.61 µM [activator, full curve]
CC(=O)Nc1ccc2c(c1)nc1n2CCN(C2CCCCC2)C1	inconclusive: 23.1 µM [activator, partial curve]
Cc1ccccc1CN1CCN(c2ccc(S(=O)(=O)N3CCCC3)cn2)CC1	inconclusive: 18.4 µM [falling, single point]
COc1ccc(NC(=O)c2cc(F)c(F)cc2Cl)cc1Cl	inconclusive: 25.9 µM [activator, single point]
CN(Cc1ccc(F)cc1)S(=O)(=O)c1nnc(NC(=O)c2ccccc2Br)s1	inconclusive: 23.1 µM [falling, partial curve]
O=C(Nc1ccc(S(=O)(=O)N2CCCCC2)cc1)C1CCCO1 (configuration not stated)	inactive
CC(=O)c1c(C)[nH]c(C(=O)Nc2ccc(Cl)cc2F)c1C	inconclusive: 10.3 µM [activator, partial curve]
O=C(Cn1c(=O)n(Cc2ccc(Cl)cc2)c(=O)c2cccnc21)Nc1ccccc1C(F)(F)F	inactive
O=C(Nc1cccnc1)c1c(O)c2cccc3c2n(c1=O)CC3	inconclusive: 9.2 µM [activator, partial curve]
COc1ncccc1C(=O)NC1CCCc2c1cnn2-c1ccc(C)c(C)c1 (configuration not stated)	inconclusive: 23.1 µM [falling, single point]
O=C(Nc1nc(-c2cccs2)cs1)c1ccc(Cl)cc1	inconclusive: 2.31 µM [activator, partial curve, poor fit]
S=C(NNc1ccnc2cc(Cl)ccc12)Nc1ccc(Cl)cc1Cl	inconclusive: 29.1 µM [falling, single point]
Cc1ccc2c(c1)c(=O)c1c3n2CCN(C(=O)CCl)C3CC1 (configuration not stated)	inactive
CCOC(=O)c1c(NC(=O)COC(=O)c2cccnc2OCC)sc(C(=O)N(CC)CC)c1C	active: 14.6 µM
O=C(Nc1ccc(Cl)cc1)C1=Cc2ccccc2OC1	inconclusive: 2.59 µM [activator, full curve]
COCCNC(=O)c1c(-c2ccccc2)c(-c2ccccc2)nn(C)c1=O	inconclusive: 13 µM [activator, partial curve, poor fit]
Cc1ccc(C)c(NC(=O)CSc2nnc(CCNC(=O)OC(C)(C)C)o2)c1	inactive
CCOC(=O)c1c(C)c(-c2ccccc2)n(CC(=O)NCc2cccc(OC)c2)c1C	inconclusive: 16.4 µM [falling, partial curve, poor fit]
